Where “and” joins values, the source holds several entries; their conditions need not be identical. Equal entries are not always repeated. Structures can show the parent of a compound that is named as a salt. ± gives the standard deviation of the averaged measurements. The list shows a part of the results. Baselines shift from plate to plate; read single values as rough.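 Primary human stellate myofibroblasts activated in culture; inactivation shown by regained lipid droplets. Readout: fraction of Hoechst-counted cells exceeding a per-plate Bodipy threshold, duplicate wells, each plate with DMSO negative and nortriptyline positive controls. Hits: control-normalized score beyond the plate's top-tenth-percentile nortriptyline wells, or among its three best wells. Final well concentrations unstated.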
Test system: primary human hepatic stellate cells (donor 1)
Test: percent Bodipy-positive cells; higher = more lipid droplet accumulation
Settings: 48 h
[1] = library stock concentration: 10 mM
[2] = library stock concentration: 3.33 mM
[3] = library stock concentration: 1 mM

## O=c1cc(-c2ccccc2F)[nH]c2cc3c(cc12)OCO3 [CHM-1 hydrate]
[1]
  percent Bodipy-positive cells: 85.5 ± 3.3%

## O=c1[nH]ccc2c(O)cccc12 [1,5-Isoquinolinediol]
[1]
  percent Bodipy-positive cells: 30.8 ± 8.5%

## CC(C)(CO)[C@@H](O)C(=O)NCCC(=O)O [Pantothenic acid]
Library stock concentration: 9.1 mM
  percent Bodipy-positive cells: 2.81 ± 1.6%

## CC(C)(CO)[C@@H](O)C(=O)NCCC(=O)O [Pantothenic acid(d) na salt]
Library stock concentration: 8.3 mM
  percent Bodipy-positive cells: 5.899 ± 0.023%

## CC(C)(CO)[C@@H](O)C(=O)NCCC(=O)O [D-Pantothenic acid]
[2]
  percent Bodipy-positive cells: 4.99 ± 1.2%
[1]
  percent Bodipy-positive cells: 10.3 ± 0.33%

## CC(C)(CO)[C@@H](O)C(=O)NCCC(=O)O [Pantothenic acid calcium salt monohydrate]
  percent Bodipy-positive cells: 36 ± 4.4%

## CCN1CCN(Cc2ccc(Nc3ncc(F)c(-c4cc(F)c5nc(C)n(C(C)C)c5c4)n3)nc2)CC1 [Abemaciclib]
Library stock concentration: 2 mM
  percent Bodipy-positive cells: 55.8 ± 3.3%

## CCN(CC)C(=O)C1(c2ccccc2)CC1CN (centres undefined) [Milnacipran HCl]
[2]
  percent Bodipy-positive cells: 13.9 ± 1.7%
[1]
  percent Bodipy-positive cells: 36.2 ± 6.3%

## CCN(CC)C(=O)C1(c2ccccc2)CC1CN (centres undefined)
[1]
  percent Bodipy-positive cells: 32.8 ± 10%

## CCN(CC)C(=O)C1(c2ccccc2)CC1CN (centres undefined) [Milnacipran]
[1]
  percent Bodipy-positive cells: 7.35 ± 1.3%

## Cc1cc(C(C)(C)C)cc(C)c1CC1=NCCN1 [Xylometazoline HCl]
[2]
  percent Bodipy-positive cells: 29.3 ± 5.2%
[1]
  percent Bodipy-positive cells: 45.5 ± 3%

## Cc1cc(C(C)(C)C)cc(C)c1CC1=NCCN1 [Xylometazoline hydrochloride]
  percent Bodipy-positive cells: 54.8 ± 1.2%
Library stock concentration: 7.1 mM
  percent Bodipy-positive cells: 58.2 ± 12%
[1]
  percent Bodipy-positive cells: 52.6% and 43.6%

## CCN(CCCCOC(=O)c1ccc(OC)c(OC)c1)C(C)Cc1ccc(OC)cc1 (centres undefined) [Mebeverine hydrochloride]
  percent Bodipy-positive cells: 57.5 ± 11%
[1]
  percent Bodipy-positive cells: 26.4 ± 8.1%

## COc1cc(NC(=O)c2ccccn2)ccc1Cl
[2]
  percent Bodipy-positive cells: 10.7 ± 2.8%
[1]
  percent Bodipy-positive cells: 12.3% and 11.6%

## O=C(c1cc(O)c(O)c([N+](=O)[O-])c1)c1ccccc1F
[1]
  percent Bodipy-positive cells: 14.6 ± 4.3%

## O=c1nc2ccccc2c2n1CC(CN1CCN(c3ccccc3)CC1)N2 (centres undefined)
[1]
  percent Bodipy-positive cells: 27.6 ± 9.9%

## CC[C@H](CO)Nc1nc(Nc2cccc(-c3ccccn3)c2)c2ncn(C(C)C)c2n1 [(R)-DRF053 dihydrochloride]
[1]
  percent Bodipy-positive cells: 18.2 ± 4.1%

## c1ccc2c(c1)CC(N1CCN(c3cccc4c3OCCO4)CC1)C2
[1]
  percent Bodipy-positive cells: 50.3 ± 6.8%

## CC(=O)c1cc2ccccc2oc1=O [3-Acetylcoumarin]
  percent Bodipy-positive cells: 5.99 ± 3%

## CCCCCCOc1ccccc1C(N)=O [Exalamide]
[1]
  percent Bodipy-positive cells: 33 ± 12%

## CC(=O)Nc1c(I)c(C(=O)N[C@H]2C(O)O[C@H](CO)[C@@H](O)[C@@H]2O)c(I)c(N(C)C(C)=O)c1I (some centres undefined) [Metrizamide]
  percent Bodipy-positive cells: 39.8 ± 6.7%

## CCN(CC)CCNC(=O)c1ccc(N)cc1 [Pronestyl]
[1]
  percent Bodipy-positive cells: 30.3 ± 8.3%

## CCN(CC)CCNC(=O)c1ccc(N)cc1 [Procainamide hydrochloride]
  percent Bodipy-positive cells: 21.1 ± 5%
[1]
  percent Bodipy-positive cells: 11.4% and 16.6%

## CCN(CC)CCNC(=O)c1ccc(N)cc1 [Procainamide HCl]
[2]
  percent Bodipy-positive cells: 11 ± 3.4%
[1]
  percent Bodipy-positive cells: 39.3 ± 11%

## NC[C@H](O)c1ccc(O)c(O)c1 [Norepinephrine]
[1]
  percent Bodipy-positive cells: 13 ± 1.3%
Library stock concentration: 11.8 mM
  percent Bodipy-positive cells: 6.02 ± 2.8%

## NC[C@H](O)c1ccc(O)c(O)c1 [Noradrenaline bitartrate monohydrate]
[2]
  percent Bodipy-positive cells: 8.58 ± 0.56%
[1]
  percent Bodipy-positive cells: 15.7 ± 0.83%

## Cc1ccccc1N1CCN(S(=O)(=O)C[C@]23CC[C@H](C[C@@H]2NC(=O)[C@@H](N)CCS(C)(=O)=O)C3(C)C)CC1 [L-368,899 hydrochloride]
[1]
  percent Bodipy-positive cells: 14.9 ± 1.5%

## CCc1cc2c(cc1CC)CC(NC[C@H](O)c1ccc(O)c3[nH]c(=O)ccc13)C2 [Indacaterol Maleate]
[2]
  percent Bodipy-positive cells: 43 ± 2.8%

## Cc1c(-c2ccc(O)cc2)n(Cc2ccc(OCCN3CCCCCC3)cc2)c2ccc(O)cc12 [Bazedoxifene HCl]
[2]
  percent Bodipy-positive cells: 64.7 ± 9.7%
[1]
  percent Bodipy-positive cells: 98.9 ± 1.6%

## CCOC1O[C@H]([C@@H](COCc2ccccc2)OCc2ccccc2)[C@H](OCc2ccccc2)[C@H]1O (some centres undefined) [Tribenoside]
  percent Bodipy-positive cells: 12 ± 1.5%

## C=C[C@]1(C)C[C@@H](OC(=O)CSC(C)(C)CNC(=O)[C@H](N)C(C)C)[C@]2(C)[C@H](C)CC[C@]3(CCC(=O)[C@H]32)[C@@H](C)[C@@H]1O [Valnemulin HCl]
[2]
  percent Bodipy-positive cells: 19 ± 5.3%
[1]
  percent Bodipy-positive cells: 81.3 ± 5.8%

## O=C(O)C1=C(CSc2nnnn2CS(=O)(=O)O)CS[C@@H]2[C@H](NC(=O)[C@H](O)c3ccccc3)C(=O)N12 [Cefonicid sodium]
Library stock concentration: 3.5 mM
  percent Bodipy-positive cells: 14 ± 9.7%

## CCCCC1C(=O)CCC2C(CCCCCCC(=O)O)C(=O)CC12 (centres undefined) [Bicyclo Prostaglandin E1]
[3]
  percent Bodipy-positive cells: 10.6 ± 0.24%

## CCNC(=O)c1noc(-c2cc(C(C)C)c(O)cc2O)c1-c1ccc(CN2CCOCC2)cc1
[2]
  percent Bodipy-positive cells: 73.506 ± 0.052%

## CCOC(=O)[C@@H](C)Oc1cccc2c(=O)n(CC(=O)Nc3ccc4c(c3)OCCO4)ccc12
[1]
  percent Bodipy-positive cells: 26.9 ± 6%

## O=C1C(Cl)=C(N2CCOCC2)C(=O)N1c1ccc(Cl)c(Cl)c1
[2]
  percent Bodipy-positive cells: 19 ± 1.2%
[1]
  percent Bodipy-positive cells: 32.8 ± 2.5%

## CCN(CC)CCCCCCCCOC(=O)c1cc(OC)c(OC)c(OC)c1
Library stock concentration: 12.6 mM
  percent Bodipy-positive cells: 93.31 ± 0.32%

## Cc1ccc(NC(=O)CCCCCC(=O)Nc2ccccc2N)cc1 [Pimelic Diphenylamide 106]
[3]
  percent Bodipy-positive cells: 18.5 ± 2.8%

## Cc1ccc(-c2cc(C(F)(F)F)nn2-c2ccc(S(N)(=O)=O)cc2)cc1 [Celecoxib]
[2]
  percent Bodipy-positive cells: 20.4 ± 3.7%
Library stock concentration: 5.2 mM
  percent Bodipy-positive cells: 33.4% and 10.7%

## CC(C)[N+]1(C)[C@@H]2CC[C@H]1C[C@@H](OC(=O)C(CO)c1ccccc1)C2 (some centres undefined) [Ipratropium Bromide]
[2]
  percent Bodipy-positive cells: 7.75 ± 0.012%
[1]
  percent Bodipy-positive cells: 18.1% and 40.8%

## CC(C)[N+]1(C)[C@@H]2CC[C@H]1C[C@@H](OC(=O)C(CO)c1ccccc1)C2 (some centres undefined) [Ipratropium bromide]
  percent Bodipy-positive cells: 26.69 ± 0.19%
Library stock concentration: 4.9 mM
  percent Bodipy-positive cells: 4.9 ± 0.14%
[1]
  percent Bodipy-positive cells: 19.5% and 31.2% and 8%
